According to PMC3113324, “AKAP5 and AKAP12 Form Homo-oligomers” (Journal of Molecular Signaling, 2011):
No constants are given. Whether binding was seen depends on the method and setting. For part of these data: Sequences can lack the tags named with a protein. Values belong to the binder of their own block, whether it stands above or below them.

Assays:
Assay in all cases: SDS-PAGE in 8 M urea; purified His-tagged proteins treated with and resolved on SDS-PAGE in the presence of 8 M urea; Coomassie staining and immunoblotting; both purified
[1] = biological target: His-tagged AKAP12 (840-1782) (human) (UniProt Q02952)
[2] = biological target: His-tagged AKAP12 (1-840) (human) (UniProt Q02952)
[3] = biological target: His-tagged human AKAP12 (human) (UniProt Q02952)

- binding [1]: no binding (condition: with 8 M urea)
B1: His-tagged AKAP12 (840-1782) (domain or fragment, human, UniProt Q02952 840-1782, looked up)
chain: DSDVPAVVPLSEYDAVEREKMEAQQAQKSAEQPEQKAATEVSKELSESQVHMMAAAVADGTRAATIIEERSPSWISASVTEPLEQVEAEAALLTEEVLEREVIAEEEPPTVTEPLPENREARGDTVVSEAELTPEAVTAAETAGPLGAEEGTEASAAEETTEMVSAVSQLTDSPDTTEEATPVQEVEGGVPDIEEQERRTQEVLQAVAEKVKEESQLPGTGGPEDVLQPVQRAEAERPEEQAEASGLKKETDVVLKVDAQEAKTEPFTQGKVVGQTTPESFEKAPQVTESIESSELVTTCQAETLAGVKSQEMVMEQAIPPDSVETPTDSETDGSTPVADFDAPGTTQKDEIVEIHEENEVASGTQSGGTEAEAVPAQKERPPAPSSFVFQEETKEQSKMEDTLEHTDKEVSVETVSILSKTEGTQEADQYADEKTKDVPFFEGLEGSIDTGITVSREKVTEVALKGEGTEEAECKKDDALELQSHAKSPPSPVEREMVVQVEREKTEAEPTHVNEEKLEHETAVTVSEEVSKQLLQTVNVPIIDGAKEVSSLEGSPPPCLGQEEAVCTKIQVQSSEASFTLTAAAEEEKVLGETANILETGETLEPAGAHLVLEEKSSEKNEDFAAHPGEDAVPTGPDCQAKSTPVIVSATTKKGLSSDLEGEKTTSLKWKSDEVDEQVACQEVKVSVAIEDLEPENGILELETKSSKLVQNIIQTAVDQFVRTEETATEMLTSELQTQAHVIKADSQDAGQETEKEGEEPQASAQDETPITSAKEESESTAVGQAHSDISKDMSEASEKTMTVEVEGSTVNDQQLEEVVLPSEEEGGGAGTKSVPEDDGHALLAERIEKSLVEPKEDEKGDDVDDPENQNSALADTDASGGLTKESPDTNGPKQKEKEDAQEVELQEGKVHSESDKAITPQAQEELQKQERESAKSELTES
notes: AKAP12, human, C-terminal fragment, residues 840-1782, in pET28b(+); also called C-terminal (840-1782) fragment of AKAP12; source: E. coli, purified (Ni-NTA)

- binding [2]: no binding (condition: with 8 M urea)
B2: His-tagged AKAP12 (1-840) (domain or fragment, human, UniProt Q02952 1-840, looked up)
chain: MGAGSSTEQRSPEQPPEGSSTPAEPEPSGGGPSAEAAPDTTADPAIAASDPATKLLQKNGQLSTINGVAEQDELSLQEGDLNGQKGALNGQGALNSQEEEEVIVTEVGQRDSEDVSKRDSDKEMATKSAVVHDITDDGQEETPEIIEQIPSSESNLEELTQPTESQANDIGFKKVFKFVGFKFTVKKDKTEKPDTVQLLTVKKDEGEGAAGAGDHKDPSLGAGEAASKESEPKQSTEKPEETLKREQSHAEISPPAESGQAVEECKEEGEEKQEKEPSKSAESPTSPVTSETGSTFKKFFTQGWAGWRKKTSFRKPKEDEVEASEKKKEQEPEKVDTEEDGKAEVASEKLTASEQAHPQEPAESAHEPRLSAEYEKVELPSEEQVSGSQGPSEEKPAPLATEVFDEKIEVHQEEVVAEVHVSTVEERTEEQKTEVEETAGSVPAEELVEMDAEPQEAEPAKELVKLKETCVSGEDPTQGADLSPDEKVLSKPPEGVVSEVEMLSSQERMKVQGSPLKKLFTSTGLKKLSGKKQKGKRGGGDEESGEHTQVPADSPDSQEEQKGESSASSPEEPEEITCLEKGLAEVQQDGEAEEGATSDGEKKREGVTPWASFKKMVTPKKRVRRPSESDKEDELDKVKSATLSSTESTASEMQEEMKGSVEEPKPEEPKRKVDTSVSWEALICVGSSKKRARRGSSSDEEGGPKAMGGDHQKADEAGKDKETGTDGILAGSQEHDPGQGSSSPEQAGSPTEGEGVSTWESFKRLVTPRKKSKSKLEEKSEDSIAGSGVEHSTPDTEPGKEESWVSIKKFIPGRRKKRPDGKQEQAPVEDAGPTGANEDD
notes: AKAP12, human, N-terminal fragment, residues 1-840, in pET28b(+); also called N-terminal (1-840) fragment of AKAP12; source: E. coli, purified (Ni-NTA)

- binding [3]: no binding (condition: with 8 M urea)
B3: His-tagged human AKAP12 (natural protein, UniProt Q02952 1-1782, looked up)
chain: MGAGSSTEQRSPEQPPEGSSTPAEPEPSGGGPSAEAAPDTTADPAIAASDPATKLLQKNGQLSTINGVAEQDELSLQEGDLNGQKGALNGQGALNSQEEEEVIVTEVGQRDSEDVSKRDSDKEMATKSAVVHDITDDGQEETPEIIEQIPSSESNLEELTQPTESQANDIGFKKVFKFVGFKFTVKKDKTEKPDTVQLLTVKKDEGEGAAGAGDHKDPSLGAGEAASKESEPKQSTEKPEETLKREQSHAEISPPAESGQAVEECKEEGEEKQEKEPSKSAESPTSPVTSETGSTFKKFFTQGWAGWRKKTSFRKPKEDEVEASEKKKEQEPEKVDTEEDGKAEVASEKLTASEQAHPQEPAESAHEPRLSAEYEKVELPSEEQVSGSQGPSEEKPAPLATEVFDEKIEVHQEEVVAEVHVSTVEERTEEQKTEVEETAGSVPAEELVEMDAEPQEAEPAKELVKLKETCVSGEDPTQGADLSPDEKVLSKPPEGVVSEVEMLSSQERMKVQGSPLKKLFTSTGLKKLSGKKQKGKRGGGDEESGEHTQVPADSPDSQEEQKGESSASSPEEPEEITCLEKGLAEVQQDGEAEEGATSDGEKKREGVTPWASFKKMVTPKKRVRRPSESDKEDELDKVKSATLSSTESTASEMQEEMKGSVEEPKPEEPKRKVDTSVSWEALICVGSSKKRARRGSSSDEEGGPKAMGGDHQKADEAGKDKETGTDGILAGSQEHDPGQGSSSPEQAGSPTEGEGVSTWESFKRLVTPRKKSKSKLEEKSEDSIAGSGVEHSTPDTEPGKEESWVSIKKFIPGRRKKRPDGKQEQAPVEDAGPTGANEDDSDVPAVVPLSEYDAVEREKMEAQQAQKSAEQPEQKAATEVSKELSESQVHMMAAAVADGTRAATIIEERSPSWISASVTEPLEQVEAEAALLTEEVLEREVIAEEEPPTVTEPLPENREARGDTVVSEAELTPEAVTAAETAGPLGAEEGTEASAAEETTEMVSAVSQLTDSPDTTEEATPVQEVEGGVPDIEEQERRTQEVLQAVAEKVKEESQLPGTGGPEDVLQPVQRAEAERPEEQAEASGLKKETDVVLKVDAQEAKTEPFTQGKVVGQTTPESFEKAPQVTESIESSELVTTCQAETLAGVKSQEMVMEQAIPPDSVETPTDSETDGSTPVADFDAPGTTQKDEIVEIHEENEVASGTQSGGTEAEAVPAQKERPPAPSSFVFQEETKEQSKMEDTLEHTDKEVSVETVSILSKTEGTQEADQYADEKTKDVPFFEGLEGSIDTGITVSREKVTEVALKGEGTEEAECKKDDALELQSHAKSPPSPVEREMVVQVEREKTEAEPTHVNEEKLEHETAVTVSEEVSKQLLQTVNVPIIDGAKEVSSLEGSPPPCLGQEEAVCTKIQVQSSEASFTLTAAAEEEKVLGETANILETGETLEPAGAHLVLEEKSSEKNEDFAAHPGEDAVPTGPDCQAKSTPVIVSATTKKGLSSDLEGEKTTSLKWKSDEVDEQVACQEVKVSVAIEDLEPENGILELETKSSKLVQNIIQTAVDQFVRTEETATEMLTSELQTQAHVIKADSQDAGQETEKEGEEPQASAQDETPITSAKEESESTAVGQAHSDISKDMSEASEKTMTVEVEGSTVNDQQLEEVVLPSEEEGGGAGTKSVPEDDGHALLAERIEKSLVEPKEDEKGDDVDDPENQNSALADTDASGGLTKESPDTNGPKQKEKEDAQEVELQEGKVHSESDKAITPQAQEELQKQERESAKSELTES
notes: A-kinase-anchoring protein 12 (AKAP12, gravin, SSECKS), human, full length (1-1782), calculated MW 191.5 kDa; also called gravin; SSECKS; source: E. coli, purified by gel filtration chromatography (Superose 12)
